Reference: the supplement of paper PMC3682954
Counter-ions that a name gives are not always drawn. ± gives the standard deviation of the averaged measurements. The list shows a part of the results. Many values rest on one well or one pass, so single values are uncertain.

Test system: RAW 264.7
Assay: cell viability (MTT) relative to vehicle control; higher = more viable cells
Details: stimulus: HMGB1 5 ug/ml, 18 h
[1] = compound concentration: 1 ug/ml

Row | SMILES | cell viability (compound concentration: 3 uM) [%] | cell viability [1] [%]
1 | CC(N)C(=O)OC(C)(C)Cc1ccc(Cl)cc1 (stereo unspecified) [Alaproclate hydrochloride] | 96.5 | –
2 | CC(N)C(=O)OC(C)(C)Cc1ccc(Cl)cc1 (stereo unspecified) | 108 | –
3 | Cc1cccc(Nc2ccccc2C(=O)O)c1C | 109 | –
4 | Cc1cccc(Nc2ccccc2C(=O)O)c1C [Mefenamic acid] | 90.8 ± 10 | –
5 | CCC(C)n1ncn(-c2ccc(N3CCN(c4ccc(OCC5COC(Cn6cncn6)(c6ccc(Cl)cc6Cl)O5)cc4)CC3)cc2)c1=O (stereo unspecified) | 86.6 ± 11 | –
6 | CCC(C)n1ncn(-c2ccc(N3CCN(c4ccc(OCC5COC(Cn6cncn6)(c6ccc(Cl)cc6Cl)O5)cc4)CC3)cc2)c1=O (stereo unspecified) [Itraconazole] | 99.2 ± 5.1 | –
7 | CCOc1cc(N)c(Cl)cc1C(=O)NCC1CN(Cc2ccc(F)cc2)CCO1 (stereo unspecified) | 89 | –
8 | C[n+]1ccccc1/C=N/O | 105 | –
9 | C[n+]1ccccc1/C=N/O [Pralidoxime chloride] | 110 | –
10 | O=C(O)CCNC(=O)c1ccc(/N=N/c2ccc(O)c(C(=O)O)c2)cc1 | 97 | –
11 | O=C(O)CCNC(=O)c1ccc(/N=N/c2ccc(O)c(C(=O)O)c2)cc1 [Balsalazide Sodium] | 102 | –
12 | Cc1cc(O)c2c(c1)C(=O)c1cc(O)cc(O)c1C2=O [Emodin] | 104 | 102
13 | OCC1OC(Oc2ccc3c(c2)OC[C@H]2c4cc5c(cc4O[C@@H]32)OCO5)C(O)C(O)C1O (stereo partly specified) | – | 97.9
14 | Clc1ccc(Nc2nnc(Cc3ccncc3)c3ccccc23)cc1 [Vatalanib] | 128 ± 21 | –
15 | Nc1ccc2c3c(cccc13)C(=O)NC2=O [4-Amino-1,8-naphthalimide] | 104 | –
16 | C[N+](C)(C)CCO.[Cl-] | 113 | –
17 | C/C=C1\[C@H]2C=C(C)C[C@]1(N)c1ccc(=O)[nH]c1C2 | 100 | –
18 | O=C(Oc1cccc2cccnc12)c1ccccc1 | 108 | –
19 | CN1CCC(OC(c2ccccc2)c2ccccc2)CC1 | 100 | –
20 | CN1CCC(OC(c2ccccc2)c2ccccc2)CC1 [Diphenylpyraline hydrochloride] | 113 | –
21 | NCCC[C@H](N)CC(=O)N[C@H]1CNC(=O)[C@H]([C@H]2C[C@H](O)NC(N)=N2)NC(=O)/C(=C/NC(N)=O)NC(=O)[C@H](CO)NC(=O)[C@H](CO)NC1=O [Viomycin sulfate] | 94.6 | –
22 | CN(C)CCCN1c2ccccc2CCc2ccccc21 [Imipramine hydrochloride] | 103 ± 12 | –
23 | CN(C)CCCN1c2ccccc2CCc2ccccc21 [Imipramine] | 99 | –
24 | CN(C)CCCN1c2ccccc2CCc2ccccc21 | 98.5 | –
25 | Cc1cccc(C(=O)NCN2CCN(c3ccccc3C#N)CC2)c1 [PD 168,077 maleate] | 113 | –

Complete entries as entered above:
CN(C)CCCN1c2ccccc2CCc2ccccc21 [Imipramine hydrochloride] is entered as cell viability (compound concentration: 3 uM) [%]: 103 ± 12
Cc1cccc(Nc2ccccc2C(=O)O)c1C [Mefenamic acid] is entered as cell viability (compound concentration: 3 uM) [%]: 90.8 ± 10
